Test results as given in publication doi:10.1101/2022.02.06.479262.
Results are given in words; binding and its absence hold for the method and conditions named. Binding seen in cells or lysates may run through a third protein. Some binding calls cover weakened binding; strength is not graded here. Sequences can lack the tags named with a protein.

Chains of the proteins cited; added tags and fusions are not shown.
UniProt A8HYP5: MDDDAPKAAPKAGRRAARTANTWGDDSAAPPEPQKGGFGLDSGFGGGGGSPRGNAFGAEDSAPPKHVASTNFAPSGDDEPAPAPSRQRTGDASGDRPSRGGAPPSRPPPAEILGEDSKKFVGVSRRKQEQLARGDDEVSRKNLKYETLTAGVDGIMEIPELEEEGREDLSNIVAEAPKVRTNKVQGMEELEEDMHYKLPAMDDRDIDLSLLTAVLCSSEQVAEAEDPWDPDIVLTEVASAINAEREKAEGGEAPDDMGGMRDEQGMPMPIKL

Target: T1, IFT25-HA-GFP (C. reinhardtii) (UniProt B8LIX8)
T1 sequence: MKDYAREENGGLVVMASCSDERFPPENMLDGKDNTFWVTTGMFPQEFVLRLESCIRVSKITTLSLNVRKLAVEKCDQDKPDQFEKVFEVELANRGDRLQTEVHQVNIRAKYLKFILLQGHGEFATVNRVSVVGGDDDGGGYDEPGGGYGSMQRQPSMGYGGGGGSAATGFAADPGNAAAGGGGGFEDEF
Test: co-IP

IFT43 (from UniProt A8HYP5 1-272)
binding: binds
